{"sequences": {"note": "Protein sequences, listed by entry. Tags and fused reporters are not part of them.", "UniProt Q7Z434": "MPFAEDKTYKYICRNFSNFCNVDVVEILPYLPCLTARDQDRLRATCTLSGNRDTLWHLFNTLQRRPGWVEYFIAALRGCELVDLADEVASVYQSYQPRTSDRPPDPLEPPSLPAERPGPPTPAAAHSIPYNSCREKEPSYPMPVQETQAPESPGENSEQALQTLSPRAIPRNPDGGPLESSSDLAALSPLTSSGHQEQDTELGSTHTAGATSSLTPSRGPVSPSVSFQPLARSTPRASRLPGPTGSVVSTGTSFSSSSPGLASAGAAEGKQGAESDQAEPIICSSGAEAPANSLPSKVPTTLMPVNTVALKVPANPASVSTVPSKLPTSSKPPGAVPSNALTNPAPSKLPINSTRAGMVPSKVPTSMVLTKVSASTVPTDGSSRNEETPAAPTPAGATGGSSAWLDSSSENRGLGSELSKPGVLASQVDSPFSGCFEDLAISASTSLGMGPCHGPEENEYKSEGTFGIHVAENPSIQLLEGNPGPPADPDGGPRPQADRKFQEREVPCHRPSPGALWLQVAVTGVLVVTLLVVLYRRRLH"}, "source": "paper doi:10.1101/2025.06.02.657400", "binders": {"B1": {"name": "phosphorylated IRF3 (protein, UniProt Q14653 1-427)", "chain": "MGTPKPRILPWLVSQLDLGQLEGVAWVNKSRTRFRIPWKHGLRQDAQQEDFGIFQAWAEATGAYVPGRDKPDLPTWKRNFRSALNRKEGLRLAEDRSKDPHDPHKIYEFVNSGVGDFSQPDTSPDTNGGGSTSDTQEDILDELLGNMVLAPLPDPGPPSLAVAPEPCPQPLRSPSLDNPTPFPNLGPSENPLKRLLVPGEEWEFEVTAFYRGRQVFQQTISCPEGLRLVGSEVGDRTLPGWPVTLPDPGMSLTDRGVMSYVRHVLSCLGGGLALWRAGQWLWAQRLGHCHTYWAVSEELLPNSGHGPDGEVPKDKEGGVFDLGPFIVDLITFTEGSGRSPRYALWFCVGESWPQDQPWTKRLVMVKVVPTCLRALVEMARVGGASSLENTVDLHISNSHPLSLTSDQYKAYLQDLVEGMDFQGPGES", "modifications": "phosphorylated (site not given)"}}, "target": "mitochondrial antiviral signaling protein (MAVS) (human (endogenous in PBMCs)) (UniProt Q7Z434)", "assay": "co-IP", "note": "No constants are given. Whether binding was seen depends on the method and setting. Binding seen in cells or lysates may run through a third protein. Some results given as binding are weak or reduced against the parent protein; the word gives no strength.", "data": [{"binder": "B1", "values": [{"measurement": "binding", "result": "binds"}]}]}
